Test results as given in US7582424B2 (priority 2000, dated 2009).
At least one compound was matched to its structure with a doubt left.

What was measured:
[1] = system: ACE-stimulated Isc in 16HBE14o- cell monolayers; type: cell-based, human
[2] = system: Ace-induced Isc response by T84 cell monolayers; type: cell-based, human
cAMP = type: cell-based

Row | SMILES | effect on Ace-induced Isc response [1] | effect on Ace-induced Isc response [2] | effect on cellular cAMP (cAMP)
1 | COC(=O)C1=C(C)NC(C)=C(C(=O)OC)C1c1ccccc1[N+](=O)[O-] [nifedipine] | inhibits | almost completely | –
2 | C=C[C@@]1(C)CC(=O)[C@]2(O)[C@@]3(C)[C@@H](O)CCC(C)(C)[C@@H]3[C@H](O)[C@H](OC(C)=O)[C@@]2(C)O1 [forskolin] | – | – | increases
